From the supplement of paper PMC10373366
Structures can show the parent of a compound that is named as a salt. Some of the results follow. Repeats are few or missing, and single values can be far off.

What follows are compounds tested on patient-derived ovarian cancer cells (PDC) (assay: cell growth inhibition ratio vs untreated control (CCK8); higher = stronger inhibition of cell viability). Conditions: 10 µM; 48 h.
Description: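 Natural product library (Topscience) screened at 10 µM final concentration for 48 h on ovarian cancer A2780 cells and patient-derived ovarian cancer cells (PDC) in 96-well plates; viability read by CCK8 and reported as inhibition ratio (%) relative to untreated control. Single-dose primary screen.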

| SMILES | cell growth inhibition ratio |
| --- | --- |
| CC1=C2C(=O)[C@H]3[C@@H](CC=C4C[C@@H](O)CC[C@@]43C)[C@@H]2CC[C@]12O[C@@H]1C[C@H](C)CN[C@H]1[C@H]2C [Jervine] | -4.83% |
| CCN1C[C@]2(OC(=O)c3ccccc3NC(C)=O)CC[C@H](OC)[C@@]34[C@@H]2C[C@@H]([C@@H]13)[C@@]1(O)C[C@H](OC)[C@H]2C[C@@H]4[C@]1(O)[C@H]2OC [Lappaconitine] | -21.7% |
| C[C@]12C=CC(=O)C=C1CC[C@@H]1[C@@H]2CC[C@@]2(C)[C@H]1CC[C@]2(C)O [Methandrostenolone] | 21.5% |
| CCCCCc1cc(O)cc(O)c1 [Olivetol] | -12.7% |
| COc1ccc(C=Cc2cc(OC)cc(OC)c2)cc1 [3,5,4'-Trimethoxystilbene] | 12.6% |
| COc1cc(C2OCC3C(c4cc(OC)c(O[C@@H]5O[C@H](CO)[C@@H](O)[C@H](O)[C@H]5O)c(OC)c4)OCC23)cc(OC)c1O[C@H]1O[C@@H](CO)[C@H](O)[C@@H](O)[C@@H]1O (stereo partly drawn) [Eleutheroside E] | -14% |
| COc1cc([C@@H]2c3cc4c(cc3[C@H](O)[C@H]3COC(=O)[C@H]23)OCO4)cc(OC)c1OC [Podophyllotoxin] | 55.2% |
| COc1ccc(CC2NCCc3cc(OC)c(OC)cc32)cc1OC (stereo not drawn) [Tetrahydropapaverine hydrochloride] | 12.7% |
| CN1[C@@H]2CC[C@H]1C[C@@H](OC(=O)[C@H](CO)c1ccccc1)C2 [L-Hyoscyamine] | -10.8% |
| O=C(O)CC[N+](=O)[O-] [Bovinocidin] | -24.4% |
| N#C/C=C1/C=C[C@@H](O)[C@H](O)[C@H]1O[C@@H]1O[C@H](CO)[C@@H](O)[C@H](O)[C@H]1O [Griffonin] | -21.9% |
| C[C@]12CC[C@H](O)C[C@H]1CC[C@@H]1[C@@H]2CC[C@]2(C)[C@@H](c3ccc(=O)oc3)CC[C@]12O [Bufalin] | 75.2% |
| NCCc1c[nH]c2ccccc12 [Tryptamine] | -9.85% |
| CCCC[N+]1(C)[C@@H]2C[C@@H](OC(=O)[C@H](CO)c3ccccc3)C[C@H]1[C@@H]1O[C@@H]12 (stereo partly drawn) [Scopolamine butylbromide] | -14.4% |
| C/C=C/c1cc(OC)c(OC)cc1OC [alpha-Asarone] | -0.023% |
| COC1=C[C@@H]2[C@@H]3Cc4ccc(OC)c(O)c4[C@]2(CCN3C)CC1=O [Sinomenine hydrochloride] | -10.3% |
| O=C1C=CC[C@@H]2[C@H]3CCCN4CCC[C@@H](CN12)[C@@H]34 [Sophocarpine] | -16.4% |
| COC(=O)C1=CCCN(C)C1 [Arecoline HBr] | -16% |
| S=C=NCc1ccccc1 [Benzyl isothiocyanate] | -6.94% |
| CC[C@]12C=CCN3CC[C@]4(C(=C(C(=O)OC)C1)Nc1ccccc14)[C@@H]32 [Tabersonine] | 9.29% |
| C=CCCCCCCCCC(=O)O[C@H]1CC[C@H]2[C@@H]3CCC4=CC(=O)C=C[C@]4(C)[C@H]3CC[C@]12C [Boldenone Undecylenate] | 6.22% |
| O=c1cccc2n1C[C@@H]1CNC[C@H]2C1 [Cytisine] | 17.8% |
| C/C=C/C#CC#C/C=C/c1ccco1 [Atractylodin] | 7.82% |

Ordered by count of non-hydrogen atoms (ascending): 3 of the compounds above.

| SMILES | cell growth inhibition ratio |
| --- | --- |
| COC1=C[C@@H]2[C@@H]3Cc4ccc(OC)c(O)c4[C@]2(CCN3C)CC1=O [Sinomenine hydrochloride] | -10.3% |
| CCCC[N+]1(C)[C@@H]2C[C@@H](OC(=O)[C@H](CO)c3ccccc3)C[C@H]1[C@@H]1O[C@@H]12 (stereo partly drawn) [Scopolamine butylbromide] | -14.4% |
| C[C@]12CC[C@H](O)C[C@H]1CC[C@@H]1[C@@H]2CC[C@]2(C)[C@@H](c3ccc(=O)oc3)CC[C@]12O [Bufalin] | 75.2% |
